According to the supplement of paper PMC12823440, “Inhibitors supercharge kinase turnover through native proteolytic circuits” (Nature, 2025):
This is one part of the list. Hit calls seldom repeat between salt and free forms of one compound.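 Kinases, fused to nanoluciferase, were expressed in K562 cells; luminescence was measured every 4 h from 2 to 18 h as percent of control (DMSO = 100%, positive control = 0%). A time point is decreased if signal falls significantly (2 sigma). Hits were called by the authors by a rule that is not shown; the count of time points alone does not decide it.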

The chains behind the UniProt entries cited, without tags or fusion partners. Where a name states a change or a piece, a line headed by the entry shows the natural chain unless it says otherwise.
UniProt P36888, whole entry: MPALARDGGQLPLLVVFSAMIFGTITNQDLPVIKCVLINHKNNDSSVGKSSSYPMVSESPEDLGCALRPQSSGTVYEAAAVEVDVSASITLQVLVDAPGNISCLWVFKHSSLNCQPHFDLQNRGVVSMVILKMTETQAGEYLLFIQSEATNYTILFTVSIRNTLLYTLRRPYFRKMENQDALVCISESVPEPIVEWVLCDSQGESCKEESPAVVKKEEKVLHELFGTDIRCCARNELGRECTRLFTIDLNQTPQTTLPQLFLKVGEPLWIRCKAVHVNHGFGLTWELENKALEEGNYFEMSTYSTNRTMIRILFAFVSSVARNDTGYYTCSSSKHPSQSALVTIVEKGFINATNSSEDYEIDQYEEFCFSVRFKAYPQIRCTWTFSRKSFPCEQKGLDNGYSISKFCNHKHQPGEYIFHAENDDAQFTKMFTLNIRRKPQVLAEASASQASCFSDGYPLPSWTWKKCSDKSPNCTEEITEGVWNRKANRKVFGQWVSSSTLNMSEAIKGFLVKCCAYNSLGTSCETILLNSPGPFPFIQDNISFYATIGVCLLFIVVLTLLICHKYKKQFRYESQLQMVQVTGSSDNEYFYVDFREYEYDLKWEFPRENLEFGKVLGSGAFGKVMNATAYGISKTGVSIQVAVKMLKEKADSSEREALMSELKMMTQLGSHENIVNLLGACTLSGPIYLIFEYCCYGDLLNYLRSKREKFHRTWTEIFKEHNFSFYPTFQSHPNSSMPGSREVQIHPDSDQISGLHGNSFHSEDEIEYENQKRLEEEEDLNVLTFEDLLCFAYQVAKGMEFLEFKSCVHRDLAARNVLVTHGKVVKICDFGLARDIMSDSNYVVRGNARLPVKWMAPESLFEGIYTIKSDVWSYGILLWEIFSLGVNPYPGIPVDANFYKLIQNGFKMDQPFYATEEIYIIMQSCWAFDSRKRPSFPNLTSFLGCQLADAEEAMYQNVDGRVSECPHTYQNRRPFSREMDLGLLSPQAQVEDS
UniProt P06241, whole entry, looked up: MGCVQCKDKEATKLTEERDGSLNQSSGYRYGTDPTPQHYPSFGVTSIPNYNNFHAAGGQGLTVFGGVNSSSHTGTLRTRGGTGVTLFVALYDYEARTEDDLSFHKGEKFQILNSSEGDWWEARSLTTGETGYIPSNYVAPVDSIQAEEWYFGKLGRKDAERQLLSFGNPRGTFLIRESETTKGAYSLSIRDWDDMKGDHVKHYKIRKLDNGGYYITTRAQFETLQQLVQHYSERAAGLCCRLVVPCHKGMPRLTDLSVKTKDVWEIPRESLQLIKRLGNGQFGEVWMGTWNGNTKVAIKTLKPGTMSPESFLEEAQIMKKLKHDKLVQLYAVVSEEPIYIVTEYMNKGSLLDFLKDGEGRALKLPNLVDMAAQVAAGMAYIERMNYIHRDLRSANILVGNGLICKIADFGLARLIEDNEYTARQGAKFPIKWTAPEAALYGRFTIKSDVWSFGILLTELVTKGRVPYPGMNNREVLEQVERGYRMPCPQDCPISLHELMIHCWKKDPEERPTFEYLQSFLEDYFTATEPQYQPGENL
UniProt P49840: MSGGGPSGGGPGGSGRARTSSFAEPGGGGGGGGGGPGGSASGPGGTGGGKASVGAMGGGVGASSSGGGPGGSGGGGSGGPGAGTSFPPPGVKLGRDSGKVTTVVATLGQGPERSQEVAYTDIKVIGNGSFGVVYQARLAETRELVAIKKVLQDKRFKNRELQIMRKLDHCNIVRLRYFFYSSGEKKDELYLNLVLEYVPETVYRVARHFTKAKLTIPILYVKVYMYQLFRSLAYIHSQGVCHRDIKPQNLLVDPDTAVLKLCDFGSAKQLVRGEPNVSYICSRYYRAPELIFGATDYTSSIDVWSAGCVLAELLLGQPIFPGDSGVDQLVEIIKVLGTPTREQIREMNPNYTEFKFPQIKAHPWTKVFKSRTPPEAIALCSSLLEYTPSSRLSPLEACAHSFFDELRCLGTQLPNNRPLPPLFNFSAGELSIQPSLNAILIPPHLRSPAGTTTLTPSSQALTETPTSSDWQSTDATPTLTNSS
UniProt P14616: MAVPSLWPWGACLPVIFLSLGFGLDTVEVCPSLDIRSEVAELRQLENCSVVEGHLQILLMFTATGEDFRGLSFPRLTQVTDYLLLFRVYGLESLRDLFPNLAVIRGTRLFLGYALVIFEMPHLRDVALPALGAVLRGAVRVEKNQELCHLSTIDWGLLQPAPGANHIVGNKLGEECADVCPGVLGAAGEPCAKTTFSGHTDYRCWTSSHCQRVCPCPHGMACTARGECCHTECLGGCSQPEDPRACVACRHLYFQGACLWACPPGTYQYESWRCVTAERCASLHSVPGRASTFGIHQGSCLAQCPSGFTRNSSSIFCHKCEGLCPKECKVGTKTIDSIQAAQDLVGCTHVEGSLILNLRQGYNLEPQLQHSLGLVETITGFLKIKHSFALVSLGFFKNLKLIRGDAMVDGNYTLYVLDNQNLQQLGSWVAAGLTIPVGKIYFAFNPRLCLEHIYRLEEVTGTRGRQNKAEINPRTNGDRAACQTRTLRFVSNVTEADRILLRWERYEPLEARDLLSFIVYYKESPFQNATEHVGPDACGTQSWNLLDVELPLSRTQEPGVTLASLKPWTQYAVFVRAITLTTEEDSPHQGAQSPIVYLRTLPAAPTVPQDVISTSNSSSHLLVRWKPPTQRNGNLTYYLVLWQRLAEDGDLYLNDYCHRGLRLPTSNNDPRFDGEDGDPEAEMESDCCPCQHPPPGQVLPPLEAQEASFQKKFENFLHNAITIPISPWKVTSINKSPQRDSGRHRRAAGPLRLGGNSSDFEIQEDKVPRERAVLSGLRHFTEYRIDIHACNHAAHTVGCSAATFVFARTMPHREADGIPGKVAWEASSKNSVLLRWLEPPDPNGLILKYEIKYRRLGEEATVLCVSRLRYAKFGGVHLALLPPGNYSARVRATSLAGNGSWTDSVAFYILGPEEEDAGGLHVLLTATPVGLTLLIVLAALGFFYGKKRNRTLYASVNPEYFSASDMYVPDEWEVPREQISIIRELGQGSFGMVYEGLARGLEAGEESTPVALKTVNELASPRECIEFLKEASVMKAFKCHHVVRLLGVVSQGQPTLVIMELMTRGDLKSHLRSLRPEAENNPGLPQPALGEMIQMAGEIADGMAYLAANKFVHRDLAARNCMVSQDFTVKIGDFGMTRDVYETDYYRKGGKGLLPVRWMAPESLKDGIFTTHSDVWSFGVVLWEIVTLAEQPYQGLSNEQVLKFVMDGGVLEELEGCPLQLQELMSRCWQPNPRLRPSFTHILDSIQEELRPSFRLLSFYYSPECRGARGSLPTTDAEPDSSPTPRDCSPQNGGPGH
UniProt P23458: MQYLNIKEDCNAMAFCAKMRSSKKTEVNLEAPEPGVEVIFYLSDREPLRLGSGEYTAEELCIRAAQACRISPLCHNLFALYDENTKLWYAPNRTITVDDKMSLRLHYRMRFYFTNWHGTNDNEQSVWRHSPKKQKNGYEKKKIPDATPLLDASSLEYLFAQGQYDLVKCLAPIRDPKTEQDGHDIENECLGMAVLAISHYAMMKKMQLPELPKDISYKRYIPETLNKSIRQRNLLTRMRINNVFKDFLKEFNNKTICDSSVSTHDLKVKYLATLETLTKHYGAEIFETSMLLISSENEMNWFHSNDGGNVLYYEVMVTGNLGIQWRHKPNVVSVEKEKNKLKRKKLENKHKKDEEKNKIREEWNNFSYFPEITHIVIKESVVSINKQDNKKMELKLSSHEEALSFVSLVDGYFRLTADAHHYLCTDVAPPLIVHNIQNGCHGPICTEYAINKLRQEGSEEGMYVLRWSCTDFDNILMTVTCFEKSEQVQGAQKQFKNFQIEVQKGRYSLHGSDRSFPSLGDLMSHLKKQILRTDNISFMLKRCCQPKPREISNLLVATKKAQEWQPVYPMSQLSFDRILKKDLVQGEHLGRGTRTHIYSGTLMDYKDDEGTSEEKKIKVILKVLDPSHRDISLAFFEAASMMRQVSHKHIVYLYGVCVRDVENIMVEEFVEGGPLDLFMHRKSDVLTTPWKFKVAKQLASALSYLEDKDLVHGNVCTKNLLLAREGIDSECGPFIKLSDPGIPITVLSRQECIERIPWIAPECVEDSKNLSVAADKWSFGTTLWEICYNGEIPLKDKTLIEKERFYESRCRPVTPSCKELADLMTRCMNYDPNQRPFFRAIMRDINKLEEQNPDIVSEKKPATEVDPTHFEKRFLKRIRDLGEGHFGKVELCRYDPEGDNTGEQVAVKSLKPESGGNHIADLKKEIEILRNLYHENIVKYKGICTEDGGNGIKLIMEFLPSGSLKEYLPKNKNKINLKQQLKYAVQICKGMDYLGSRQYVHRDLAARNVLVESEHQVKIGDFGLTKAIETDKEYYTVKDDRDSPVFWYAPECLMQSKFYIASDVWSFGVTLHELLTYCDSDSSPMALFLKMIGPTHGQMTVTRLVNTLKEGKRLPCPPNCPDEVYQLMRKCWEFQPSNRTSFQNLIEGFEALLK
UniProt P06239: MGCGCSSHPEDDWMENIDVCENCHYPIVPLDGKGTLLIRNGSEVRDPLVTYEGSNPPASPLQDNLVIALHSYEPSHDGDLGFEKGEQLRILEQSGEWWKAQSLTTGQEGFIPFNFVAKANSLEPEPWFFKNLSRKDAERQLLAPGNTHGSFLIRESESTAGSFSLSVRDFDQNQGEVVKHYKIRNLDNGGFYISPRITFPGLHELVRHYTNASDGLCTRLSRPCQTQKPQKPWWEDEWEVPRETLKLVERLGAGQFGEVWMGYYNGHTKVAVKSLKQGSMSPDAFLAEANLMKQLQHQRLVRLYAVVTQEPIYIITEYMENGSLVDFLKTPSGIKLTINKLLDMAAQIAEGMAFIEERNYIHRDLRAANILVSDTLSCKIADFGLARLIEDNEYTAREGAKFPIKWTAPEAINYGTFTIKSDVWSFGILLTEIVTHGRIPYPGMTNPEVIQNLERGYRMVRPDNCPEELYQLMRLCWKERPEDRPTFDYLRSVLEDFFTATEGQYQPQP
UniProt P53667: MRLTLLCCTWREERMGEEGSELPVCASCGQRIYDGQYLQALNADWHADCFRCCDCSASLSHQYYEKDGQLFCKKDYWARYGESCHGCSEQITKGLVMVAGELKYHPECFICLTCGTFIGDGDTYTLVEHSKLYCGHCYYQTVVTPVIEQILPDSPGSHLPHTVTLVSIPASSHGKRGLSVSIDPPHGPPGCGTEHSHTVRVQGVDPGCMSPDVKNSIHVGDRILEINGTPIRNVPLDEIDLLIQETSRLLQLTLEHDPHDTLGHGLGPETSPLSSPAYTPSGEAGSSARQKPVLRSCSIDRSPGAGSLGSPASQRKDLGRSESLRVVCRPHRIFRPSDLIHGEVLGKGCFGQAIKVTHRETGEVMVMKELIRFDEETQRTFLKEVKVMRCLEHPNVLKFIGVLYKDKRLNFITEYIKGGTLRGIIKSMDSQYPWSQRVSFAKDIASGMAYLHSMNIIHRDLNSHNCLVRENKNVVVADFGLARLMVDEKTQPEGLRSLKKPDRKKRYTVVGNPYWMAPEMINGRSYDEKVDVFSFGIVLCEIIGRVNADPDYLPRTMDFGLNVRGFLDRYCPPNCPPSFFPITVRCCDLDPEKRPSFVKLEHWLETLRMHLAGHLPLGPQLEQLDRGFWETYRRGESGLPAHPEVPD
UniProt P53671: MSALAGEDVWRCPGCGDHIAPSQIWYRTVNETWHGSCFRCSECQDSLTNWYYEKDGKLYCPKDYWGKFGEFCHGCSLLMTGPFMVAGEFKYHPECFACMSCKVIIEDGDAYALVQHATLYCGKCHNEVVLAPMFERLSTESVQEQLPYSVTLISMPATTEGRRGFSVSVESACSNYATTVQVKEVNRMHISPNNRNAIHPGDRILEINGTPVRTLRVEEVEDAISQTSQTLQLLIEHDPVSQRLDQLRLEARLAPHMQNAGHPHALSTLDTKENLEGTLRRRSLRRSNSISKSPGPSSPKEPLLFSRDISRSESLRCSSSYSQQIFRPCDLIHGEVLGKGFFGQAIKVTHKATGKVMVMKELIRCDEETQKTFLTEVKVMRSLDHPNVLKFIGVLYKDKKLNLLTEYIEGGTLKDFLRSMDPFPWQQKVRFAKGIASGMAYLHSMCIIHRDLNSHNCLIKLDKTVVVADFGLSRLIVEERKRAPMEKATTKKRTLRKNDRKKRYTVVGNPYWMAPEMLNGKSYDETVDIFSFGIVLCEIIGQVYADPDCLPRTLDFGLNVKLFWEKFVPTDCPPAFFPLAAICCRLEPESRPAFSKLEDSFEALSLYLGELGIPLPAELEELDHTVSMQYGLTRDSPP

Experiments:
Assay in all cases: number of time points (of 5) at which kinase-Nluc abundance scored as decreased, DMSO-normalised (count); higher = more persistent destabilization
Conditions in all cases: K562; 2-18 h
FLT3 = FLT3 (UniProt P36888)
FYN = FYN (UniProt P06241)
GSK3A = GSK3A (UniProt P49840)
HER2 = HER2 (UniProt P04626)
INSRR = INSRR (UniProt P14616)
IRAK3 = IRAK3 (UniProt Q9Y616)
JAK1 = JAK1 (UniProt P23458)
LCK = LCK (UniProt P06239)
LIMK1 = LIMK1 (UniProt P53667)
LIMK2 = LIMK2 (UniProt P53671)

Measured: number of time points

O=C(NCc1cccc(O)c1)Nc1nc(-c2ccncc2)cs1 (10 µM)
0: all assays above

CC(=O)N1CCC(c2cc(-c3ccc(NC(=O)c4cccn(-c5ccc(F)cc5)c4=O)cc3F)c3c(N)ncnn23)CC1 (0.5 µM)
0: all assays above

C=CC(=O)Nc1cc(-n2c(=O)ccc3cnc4ccc(-c5ccc(NS(C)(=O)=O)cc5)cc4c32)ccc1C (10 µM)
0: all assays above

CC(C)(C)n1nc(Cc2ccccc2O)c2c(N)ncnc21 (10 µM)
0: all assays above

COc1ccc(N=Nc2c(N)n[nH]c2N)cc1 (10 µM)
0: all assays above

Copied from the entries so far (two entries):
O=C(NCc1cccc(O)c1)Nc1nc(-c2ccncc2)cs1 (10 µM)
0: all assays above

CC(=O)N1CCC(c2cc(-c3ccc(NC(=O)c4cccn(-c5ccc(F)cc5)c4=O)cc3F)c3c(N)ncnn23)CC1 (0.5 µM)
0: all assays above

(next part)

C=CC(=O)Nc1cc(Nc2nccc(-n3cc(CN(C)C)c(-c4ccccc4)n3)n2)c(OC)cc1N1CCOCC1 [Lazertinib] (10 µM)
3: HER2
0: all other assays above

Nc1c(C(=O)NCc2ccc(C(=O)NCCCC3CCCCC3)cc2)cnn1-c1ccccc1 (2.5 µM)
0: all assays above

O=C(Nc1nc2ccccc2[nH]1)c1cccc([N+](=O)[O-])c1 [IRAK-4 protein kinase inhibitor 2] (10 µM)
0: all assays above

CCN(CC)CCC(=O)N1N=C(c2c(-c3ccccc3)c3cc(Br)ccc3[nH]c2=O)CC1c1ccc(Br)cc1 (stereo not given) (2.5 µM)
1: FYN
0: all other assays above

Cn1cc(C2=C(c3cccc(N)c3)C(=O)NC2=O)c2ccccc21 (10 µM)
0: all assays above

CC(C)S(=O)(=O)c1ccc2nccc(Nc3ccc4scnc4c3)c2c1 (10 µM)
2: INSRR
0: all other assays above

COc1cc2ncnc(-n3nc(-c4ccccn4)nc3N)c2cc1OC (10 µM)
1: HER2
0: all other assays above

CC(=O)c1c(C)c2cnc(Nc3ccc(N4CCN(C(=O)CNc5cccc6c5C(=O)N(C5CCC(=O)NC5=O)C6=O)CC4)cn3)nc2n(C2CCCC2)c1=O (stereo not given) (10 µM)
0: all assays above

COc1ccc(-c2c(C)nn3c(NCCN4CCOCC4)cc(C)nc23)cc1OC (10 µM)
0: all assays above

O=C1NC(=Nc2c(Cl)cccc2Cl)S/C1=C\c1ccc2nccnc2c1 (2.5 µM)
4: FYN | LIMK2
0: all other assays above

Cc1ccn2c(C(=O)C(=O)c3ccccc3)c(-c3ccccc3)nc2c1 (10 µM)
0: all assays above

Nc1cccc(-c2cc3c(Oc4cccc(O)c4)ncnc3[nH]2)c1 (10 µM)
2: INSRR | IRAK3 | LIMK2
1: FLT3 | HER2 | JAK1
0: all other assays above

O=C(NC1CCOCC1)c1ccc(-c2cc(-c3c[nH]nc3-c3ccccn3)ccn2)cc1 (10 µM)
0: all assays above

c1ccc(-c2nc3c(c(-n4ccc5cnccc54)n2)CCC3)nc1 (10 µM)
0: all assays above

Cc1ccc2c(Nc3cccc(Cl)c3F)nccc2c1NC(=O)c1csc2c(N)ncnc12 [Belvarafenib] (10 µM)
0: all assays above

COc1cc2ncnc(Nc3ccc(F)c(Cl)c3)c2cc1NC(=O)/C=C/CN1CCCCC1 [Dacomitinib] (10 µM)
4: HER2
0: all other assays above

CNC(=O)c1ccccc1Oc1nc(Nc2cc(OC)c(OC)c(OC)c2)ncc1Br (2.5 µM)
0: all assays above

CCCCCCCCCCCCCCCCOP(=O)([O-])OCC[N+](C)(C)C [Miltefosine] (10 µM)
0: all assays above

C[C@H](Nc1ncnc2[nH]cnc12)c1cc2ccc(F)cc2nc1-c1ccccn1 (10 µM)
0: all assays above

CS(=O)(=O)c1ccc(-c2cnc(N)c(-c3ccc(C(F)(F)F)nc3)c2)cc1 (10 µM)
0: all assays above

CN(c1ccc(NC(=O)Nc2ccc(OC(F)(F)F)cc2)cc1)c1ccnc(Nc2cccc(S(N)(=O)=O)c2)n1 (2.5 µM)
2: FLT3 | HER2 | JAK1
0: GSK3A | LCK
3: FYN | LIMK2
4: all other assays above

CN(C)c1nc2c(Br)c(Br)c(Br)c(Br)c2[nH]1 (10 µM)
0: all assays above

O=C(Nc1nc2ccc(NC(=O)C34CC5CC(CC(C5)C3)C4)cc2s1)c1ccccc1 (10 µM)
0: all assays above

CC(C)c1cc(/C=C(\C#N)C(=O)NCCCc2ccccc2)cc(C(C)C)c1O (10 µM)
0: all assays above

C[C@H](Nc1ncnc2nc[nH]c12)c1cc2cccc(Cl)c2c(=O)n1-c1ccccc1 [Duvelisib] (10 µM)
0: all assays above

COc1cc(/C=C/C(=O)N2CCC=CC2=O)cc(OC)c1OC [Piperlongumine] (2.5 µM)
4: HER2
2: FYN | INSRR | IRAK3 | LIMK1
1: LIMK2
0: all other assays above

Cn1cc(C2=C(c3cn(CCCSC(=N)N)c4ccccc34)C(=O)NC2=O)c2ccccc21 [Ro 31-8220 (mesylate)] (2.5 µM)
3: JAK1
1: FYN
2: HER2
4: FLT3
0: all other assays above

O=C(O)c1cc(=O)c2c(OCC(O)COc3cccc4oc(C(=O)O)cc(=O)c34)cccc2o1 [Cromolyn (sodium)] (10 µM)
0: all assays above

CCCNC(=O)Nc1ccc(Oc2ncnc3cc(OC)c(OC)cc23)cc1Cl (2.5 µM)
0: all assays above

Cc1cc2sc(NC(=O)Cc3ccccc3)nc2cc1Cl (10 µM)
0: all assays above

CCc1ccc(OCC(=O)Nc2ccc(F)c([N+](=O)[O-])c2)cc1 (10 µM)
0: all assays above

O=C(CNc1cccc(Cl)c1)NC1CCCN(c2ncnc3[nH]ccc23)C1 (stereo not given) (10 µM)
0: all assays above
